This note sets out measurements from doi:10.1101/2020.11.02.365890.

The chains behind the UniProt entries cited, without tags or fusion partners. Residues count along the entry.
UniProt Q04206: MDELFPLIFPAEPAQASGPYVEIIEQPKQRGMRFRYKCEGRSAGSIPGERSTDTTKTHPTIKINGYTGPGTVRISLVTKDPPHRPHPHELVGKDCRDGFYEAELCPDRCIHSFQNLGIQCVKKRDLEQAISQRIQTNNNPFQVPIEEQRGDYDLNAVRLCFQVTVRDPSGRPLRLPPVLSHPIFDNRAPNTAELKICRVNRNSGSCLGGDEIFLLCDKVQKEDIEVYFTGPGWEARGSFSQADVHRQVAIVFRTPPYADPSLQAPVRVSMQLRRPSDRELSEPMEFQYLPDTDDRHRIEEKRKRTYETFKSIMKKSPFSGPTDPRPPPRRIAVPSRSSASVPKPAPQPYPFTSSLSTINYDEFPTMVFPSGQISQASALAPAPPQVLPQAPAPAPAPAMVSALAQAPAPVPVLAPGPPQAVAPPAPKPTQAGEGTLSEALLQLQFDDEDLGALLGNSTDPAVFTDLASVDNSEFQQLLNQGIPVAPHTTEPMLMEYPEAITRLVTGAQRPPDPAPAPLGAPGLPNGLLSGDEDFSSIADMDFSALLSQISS
UniProt P19838, residues 1-433: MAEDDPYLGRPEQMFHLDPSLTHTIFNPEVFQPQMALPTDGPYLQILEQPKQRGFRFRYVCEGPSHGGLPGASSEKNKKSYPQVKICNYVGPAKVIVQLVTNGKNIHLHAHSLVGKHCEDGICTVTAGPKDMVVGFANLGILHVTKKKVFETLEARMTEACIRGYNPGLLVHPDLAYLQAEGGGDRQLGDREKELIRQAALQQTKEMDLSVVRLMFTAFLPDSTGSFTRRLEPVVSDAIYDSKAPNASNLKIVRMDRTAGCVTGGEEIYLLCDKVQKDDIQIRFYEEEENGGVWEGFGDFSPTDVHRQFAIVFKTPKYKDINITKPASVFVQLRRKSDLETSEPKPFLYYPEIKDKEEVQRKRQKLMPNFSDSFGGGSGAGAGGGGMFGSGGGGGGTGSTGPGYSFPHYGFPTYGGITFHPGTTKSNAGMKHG
UniProt Q9Z1E3: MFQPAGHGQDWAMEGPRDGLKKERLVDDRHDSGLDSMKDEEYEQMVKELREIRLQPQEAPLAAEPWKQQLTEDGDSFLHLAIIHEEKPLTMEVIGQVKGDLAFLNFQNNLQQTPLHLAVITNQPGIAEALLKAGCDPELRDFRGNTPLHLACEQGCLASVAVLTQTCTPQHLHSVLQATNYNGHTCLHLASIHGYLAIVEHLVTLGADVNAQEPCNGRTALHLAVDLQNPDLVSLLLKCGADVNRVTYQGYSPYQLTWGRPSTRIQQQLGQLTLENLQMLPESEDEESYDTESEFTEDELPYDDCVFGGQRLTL

Like-named read-outs stand apart in the source and are kept apart here. No constants are given. Whether binding was seen depends on the method and setting. For part of these data: In cells and extracts the contact can be indirect. Some results given as binding are weak or reduced against the parent protein; the word gives no strength.

Assay [1] concerns the target RelA (mouse (endogenous in MEFs and IECs)) (UniProt Q04207). The assay is described as follows: co-IP.
For assay [2], the target named is RelA (human) (human (endogenous in colon biopsies)) (UniProt Q04206). The assay is described as follows: native gel or EMSA. (A gel shift assay detects complexes by their altered migration in electrophoresis.)
Assay [3] addresses RelA (mouse (endogenous in MEFs and IECs)) (UniProt Q04207). Description: native gel or EMSA.
Assay [4] deals with RelA (human) (human (endogenous in colon biopsies)) (UniProt Q04206). Description: native gel or EMSA. The source holds these as a separate data set.
Assay [5] has as its target T1, RelA (mouse (endogenous in MEFs and IECs)), Q04207.
T1 chain: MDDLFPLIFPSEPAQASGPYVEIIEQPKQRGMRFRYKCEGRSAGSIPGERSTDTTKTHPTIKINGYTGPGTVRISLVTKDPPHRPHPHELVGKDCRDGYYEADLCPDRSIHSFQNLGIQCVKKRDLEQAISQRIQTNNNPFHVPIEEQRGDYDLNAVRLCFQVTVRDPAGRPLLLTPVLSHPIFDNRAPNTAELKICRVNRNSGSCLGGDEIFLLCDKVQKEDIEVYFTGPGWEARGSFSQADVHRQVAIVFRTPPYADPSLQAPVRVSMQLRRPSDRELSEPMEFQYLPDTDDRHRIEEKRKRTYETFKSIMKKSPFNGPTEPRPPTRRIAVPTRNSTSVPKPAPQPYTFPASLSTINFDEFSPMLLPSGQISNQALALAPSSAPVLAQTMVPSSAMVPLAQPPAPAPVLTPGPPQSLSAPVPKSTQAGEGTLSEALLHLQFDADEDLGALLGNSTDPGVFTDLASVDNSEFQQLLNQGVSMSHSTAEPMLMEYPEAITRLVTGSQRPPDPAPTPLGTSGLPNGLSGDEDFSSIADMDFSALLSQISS
Description: native gel or EMSA. As to conditions: remark: other sources report otherwise.

Assay [6] has as its target T1, RelA (mouse (endogenous in MEFs and …)). Description: co-IP. As to conditions: remark: other sources report otherwise.

For the molecule p105 (from UniProt P25799-1), in assay [1], the binding entry is “binds”.

In the case of p50 (human) (from UniProt P19838), the binding result in assay [2] is on record as “binds”.

On to IκBα (from UniProt Q9Z1E3 1-314), for which the binding entry in assay [1] is given as “binds”.

B1: p52 (protein, UniProt Q9WTK5)
chain: MDNCYDPGLDGIPEYDDFEFSPSIVEPKDPAPETADGPYLVIVEQPKQRGFRFRYGCEGPSHGGLPGASSEKGRKTYPTVKICNYEGPAKIEVDLVTHSDPPRAHAHSLVGKQCSELGVCAVSVGPKDMTAQFNNLGVLHVTKKNMMEIMIQKLQRQRLRSKPQGLTEAERRELEQEAKELKKVMDLSIVRLRFSAFLRASDGSFSLPLKPVISQPIHDSKSPGASNLKISRMDKTAGSVRGGDEVYLLCDKVQKDDIEVRFYEDDENGWQAFGDFSPTDVHKQYAIVFRTPPYHKMKIERPVTVFLQLKRKRGGDVSDSKQFTYYPLVEDKEEVQRKRRKALPTFSQPFGGGSHMGGGSGGSAGGYGGAGGGGSLGFFSSSLAYNPYQSGAAPMGCYPGGGGGAQMAGSRRDTDAGEGAEEPRTPPEAPQGEPQALDTLQRAREYNARLFGLA
Regarding B1, the binding entry in assay [1] and in assay [3] was “binds” each time.

B2: p52 (human) (protein, UniProt Q00653)
chain: MESCYNPGLDGIIEYDDFKLNSSIVEPKEPAPETADGPYLVIVEQPKQRGFRFRYGCEGPSHGGLPGASSEKGRKTYPTVKICNYEGPAKIEVDLVTHSDPPRAHAHSLVGKQCSELGICAVSVGPKDMTAQFNNLGVLHVTKKNMMGTMIQKLQRQRLRSRPQGLTEAEQRELEQEAKELKKVMDLSIVRLRFSAFLRASDGSFSLPLKPVISQPIHDSKSPGASNLKISRMDKTAGSVRGGDEVYLLCDKVQKDDIEVRFYEDDENGWQAFGDFSPTDVHKQYAIVFRTPPYHKMKIERPVTVFLQLKRKRGGDVSDSKQFTYYPLVEDKEEVQRKRRKALPTFSQPFGGGSHMGGGSGGAAGGYGGAGGGGSLGFFPSSLAYSPYQSGAGPMGCYPGGGGGAQMAATVPSRDSGEEAAEPSAPSRTPQCEPQAPEMLQRAREYNARLFGLA
As to B2, the binding entry in assay [4] is “binds”.

B3: p100 (protein, UniProt Q9WTK5)
chain: MDNCYDPGLDGIPEYDDFEFSPSIVEPKDPAPETADGPYLVIVEQPKQRGFRFRYGCEGPSHGGLPGASSEKGRKTYPTVKICNYEGPAKIEVDLVTHSDPPRAHAHSLVGKQCSELGVCAVSVGPKDMTAQFNNLGVLHVTKKNMMEIMIQKLQRQRLRSKPQGLTEAERRELEQEAKELKKVMDLSIVRLRFSAFLRASDGSFSLPLKPVISQPIHDSKSPGASNLKISRMDKTAGSVRGGDEVYLLCDKVQKDDIEVRFYEDDENGWQAFGDFSPTDVHKQYAIVFRTPPYHKMKIERPVTVFLQLKRKRGGDVSDSKQFTYYPLVEDKEEVQRKRRKALPTFSQPFGGGSHMGGGSGGSAGGYGGAGGGGSLGFFSSSLAYNPYQSGAAPMGCYPGGGGGAQMAGSRRDTDAGEGAEEPRTPPEAPQGEPQALDTLQRAREYNARLFGLAQRSARALLDYGVTADARALLAGQRHLLMAQDENGDTPLHLAIIHGQTGVIEQIAHVIYHAQYLGVINLTNHLHQTPLHLAVITGQTRVVSFLLQVGADPTLLDRHGDSALHLALRAGAAAPELLQALLRSGAHAVPQILHMPDFEGLYPVHLAVHARSPECLDLLVDCGAEVEAPERQGGRTALHLATEMEELGLVTHLVTKLHANVNARTFAGNTPLHLAAGLGSPTLTRLLLKAGADIHAENEEPLCPLPSPSTSGSDSDSEGPERDTQRNFRGHTPLDLTCSTKVKTLLLNAAQNTTEPPLAPPSPAGPGLSLGDAALQNLEQLLDGPEAQGSWAELAERLGLRSLVDTYRKTPSPSGSLLRSYKLAGGDLVGLLEALSDMGLHEGVRLLKGPETRDKLPSTEVKEDSAYGSQSVEQEAEKLCPPPEPPGGLCHGHPQPQVH
With B3, the binding result in assay [1] was “binds”.

B4: p50, P25799 (protein)
chain: MADDDPYGTGQMFHLNTALTHSIFNAELYSPEIPLSTDGPYLQILEQPKQRGFRFRYVCEGPSHGGLPGASSEKNKKSYPQVKICNYVGPAKVIVQLVTNGKNIHLHAHSLVGKHCEDGVCTVTAGPKDMVVGFANLGILHVTKKKVFETLEARMTEACIRGYNPGLLVHSDLAYLQAEGGGDRQLTDREKEIIRQAAVQQTKEMDLSVVRLMFTAFLPDSTGSFTRRLEPVVSDAIYDSKAPNASNLKIVRMDRTAGCVTGGEEIYLLCDKVQKDDIQIRFYEEEENGGVWEGFGDFSPTDVHRQFAIVFKTPKYKDVNITKPASVFVQLRRKSDLETSEPKPFLYYPEIKDKEEVQRKRQKLMPNFSDSFGGGSGAGAGGGGMFGSGGGGGSTGSPGPGYGYSNYGFPPYGGITFHPGVTKSNAGVTHG
On to B4, for which the binding entry in assay [5] and in assay [6] was “binds” each time.
